# Experimental data as given in PubChem BioAssay AID1347075 (National Center for Advancing Translational Sciences (NCATS), 2019).
# Hit rate of the full screen: of about 400,000 compounds, about 5,500 (1.4%) were called active. The shares of active, inactive and inconclusive entries below differ from those in the screen. Calls come from the whole dose curve; as a rule, active = well fitted cell-killing curve with a large enough effect; inconclusive = small, poorly fitted or top-dose-only effect, or effect the other way; inactive = flat fitted curve, though single readings scatter. A potency beside an inconclusive call is a rough fit, not a confirmed value.
# Assay: qHTS assay for MDR1-selective chemotherapeutics: Primary screen using the parental adenocarcinoma cell KB-3-1; note: nearly all actives have a fitted effect of over 60% in size
# Conditions: KB-3-1 viability, CellTiter-Glo ATP luminescence, 72 h; series mostly up to 46.1 µM
# Outline: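 Parental KB-3-1 adenocarcinoma cells in phenol-red-free DMEM with 10% FBS were pin-treated with compounds at several concentrations, incubated 72 h at 37 °C, and viability read by CellTiter-Glo luminescence; concentration-effect curves were fitted after normalization.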
# Potency is the fitted concentration of half-maximal effect.
row,SMILES,Potency
1,Cc1nn(Cc2ccccc2)c(Cl)c1C(=O)OCC(=O)NC(=O)NC12CC3CC(CC(C3)C1)C2,inactive
2,CCOC(=O)C1=C(COC(=O)c2ccc(Cl)c(S(=O)(=O)N3CCOCC3)c2)NC(=O)NC1C (centres undefined),"inconclusive: 29.1 µM [rising, single point]"
3,Cc1cccc(Cl)c1OCCCCn1ccnc1,inactive
4,CCn1c(CSCc2ccc(F)cc2)nnc1SCC(=O)N1CCN(c2ccccc2)CC1,inactive
5,COC(=O)[C@]12CCCCC=C1N(CCc1ccc(OC)c(OC)c1)C(=O)[C@H](CC(=O)NCc1cccc(C(F)(F)F)c1)C2,"inconclusive: 20.6 µM [cytotoxic, single point]"
6,Cc1cccc(N(Cc2ccccc2)C(=O)CSC(C)C(=O)Nc2cc(C)on2)c1 (centres undefined),"inconclusive: 29.1 µM [cytotoxic, single point]"
7,Cc1ccc(S(=O)(=O)N2C[C@H]3N(C(=O)OC(C)C)N(C(=O)OC(C)C)C[C@H](OC(=O)NCC4CCCCC4)[C@@]3(O)C2)cc1,"inconclusive: 18.4 µM [cytotoxic, single point]"
8,O=C(NC(=S)Nc1ccccc1N1CCCC1)c1ccc(-c2cccc([N+](=O)[O-])c2)o1,"inconclusive: 29.1 µM [cytotoxic, single point]"
9,Nc1cc(=O)[nH]c(SCC(=O)N2CCc3ccccc3C2)n1,"inconclusive: 10.3 µM [rising, partial curve, poor fit]"
10,Cc1cc(C)n(-c2nc(SCC(=O)N3CCCC3)c3c4c(sc3n2)CCCC4)n1,"inconclusive: 25.9 µM [cytotoxic, single point]"
11,CN(C)S(=O)(=O)c1ccc(NC(=S)NC(=O)Cc2ccccc2)cc1,"inconclusive: 0.0259 µM [rising, full curve]"
12,Cn1cc(CCC(=O)N2CCCC(C(=O)c3ccc(C(C)(C)C)cc3)C2)cn1 (centres undefined),"inconclusive: 29.1 µM [rising, single point]"
13,Cc1nc2c(C#N)c(-c3ccc(Cl)cc3)ccn2n1,"inconclusive: 29.1 µM [cytotoxic, single point]"
14,O=C(CCl)N=c1sccn1Cc1ccc(Cl)cc1Cl,"inconclusive: 29.1 µM [cytotoxic, single point]"
15,Cc1cccc(OCC(=O)NS(=O)(=O)c2ccc(Br)cc2)c1,"inconclusive: 20.6 µM [rising, single point]"
16,CCCOc1ccc(/C(O)=C2/C(=O)C(=O)N(CCCn3ccnc3)C2c2cccnc2)cc1 (centres undefined),"inconclusive: 18.4 µM [rising, partial curve]"
17,COc1ccc(-c2c[n+](CC(=O)c3ccccc3)c3n2CCCCC3)cc1,"inconclusive: 23.1 µM [cytotoxic, partial curve]"
18,CCOc1cc(/C=N/Nc2ncnc(Cl)c2N)ccc1O,inactive
19,Cc1nn(C)c(Cl)c1S(=O)(=O)N1CCC(CO)(CCc2ccccc2)CC1,"inconclusive: 20.6 µM [cytotoxic, single point]"
20,Cc1ccc2c(c1)c(=O)c1ccccc1n2CCCC(=O)Nc1ccc(F)cc1F,inactive
21,N#Cc1ccccc1C[C@H](N)C(=O)NC[C@H]1O[C@@H](n2ccc(N)nc2=O)[C@H](O)[C@@H]1O,inactive
22,N#Cc1cccc2c1-c1ccccc1/C2=N/NC(N)=O,"inconclusive: 32.6 µM [cytotoxic, partial curve, poor fit]"
23,c1ccc2nc(-c3nc4ccccc4o3)ccc2c1,active: 11.2 µM

row,SMILES,Potency
1,N#Cc1ccc2c(=O)n(-c3ccccc3)sc2c1,"inconclusive: 25.9 µM [cytotoxic, single point]"
2,COc1cc(S(=O)(=O)N2CCN=C2c2ccccc2)ccc1F,"inconclusive: 18.4 µM [cytotoxic, single point]"
3,COC(=O)c1ccc2nc(C)cc(Nc3ccc(O)cc3)c2c1,inactive
4,CC(C)(C)c1ccc(CN2C3=NCCCN3c3ccccc32)cc1,"inconclusive: 18.4 µM [cytotoxic, single point]"
5,COc1ccc(-c2cn[nH]c2-c2ccc(OCc3ccc(F)cc3)cc2O)cc1OC,"inconclusive: 9.2 µM [cytotoxic, partial curve, poor fit]"
6,CC(Sc1ncc(S(=O)(=O)c2ccc(C(C)C)cc2)c(N)n1)C(=O)Nc1ccccc1 (centres undefined),"inconclusive: 29.1 µM [cytotoxic, single point]"
7,CCCN(CCC)Cc1c(C(=O)N/N=C/c2c[nH]c3ccccc23)nnn1-c1nonc1N,inactive
8,O=C(Nc1ccc(Br)cc1)c1cc2ccccn2n1,"inconclusive: 7.31 µM [cytotoxic, partial curve]"
9,O=C(CN1C(=O)NC(CCc2ccccc2)C1=O)Nc1cccc(Br)c1 (centres undefined),inactive
10,CCOC(=O)c1c(NC(NC(=O)C(C)C)C(Cl)(Cl)Cl)sc2c1CCC2 (centres undefined),"inconclusive: 32.6 µM [cytotoxic, single point]"
11,CCN1C(=O)[C@H]2[C@@H](c3ccc(OC)cc3)N[C@]3(CCCN(Cc4ccc(OC)cc4)C3=O)[C@H]2C1=O,inactive
12,COCCSc1ccccc1C(=O)N1CCCC(C)C1 (centres undefined),inactive
13,COc1cc(C(=O)Nc2cc(C(F)(F)F)ccc2Cl)cc(OC)c1OC,inactive
14,CC[C@H]1c2[nH]c3ccc(C(C)C)cc3c2[C@@H]2CCN3C(=O)CCC[C@H]1[C@H]23,"inconclusive: 29.1 µM [cytotoxic, single point]"
15,O=C(CNc1cccc2ccccc12)N/N=C/c1ccc([N+](=O)[O-])o1,"inconclusive: 23.1 µM [cytotoxic, single point]"
16,Cn1c(Cc2ccccc2)[n+](C)c2ccccc21,"inconclusive: 29.1 µM [cytotoxic, single point]"
17,Cc1ccc(NC2=CC(=O)C(=O)c3ccccc32)c(C)c1,"inconclusive: 29.1 µM [cytotoxic, single point]"
18,O=C(NCc1ccc2c(c1)OCO2)C1CC(=O)N(c2ccc(Cl)cc2)C1 (centres undefined),"inconclusive: 29.1 µM [rising, partial curve, poor fit]"
19,c1ccc(Nc2scc(-c3ccccc3)[n+]2Cc2ccco2)cc1,"inconclusive: 25.9 µM [cytotoxic, single point]"
20,Cc1cccc(-n2nc([N+](=O)[O-])c(=NCc3cccnc3)n2O)c1,inactive
21,COc1cccc(/C=N/NC(=O)COc2cccc3cccnc23)c1O,"inconclusive: 20.6 µM [cytotoxic, single point]"
22,CCCCOP(=O)(OCCCC)C(O)c1ccc(F)cc1 (centres undefined),inactive
23,Cc1ccc(C(=O)/C=C2/NC(=O)CS2)cc1,inactive

row,SMILES,Potency
1,Cc1ccc2[nH]c(=O)c3cc(C(=O)N(C)c4ccccc4C)sc3c2c1,"inconclusive: 29.1 µM [cytotoxic, single point]"
2,COc1ccc(N(CC(=O)N2CCN(c3cc(C)ccc3C)CC2)S(=O)(=O)c2c(C)noc2C)cc1,"inconclusive: 32.6 µM [cytotoxic, single point]"
3,Cc1ccc(NNC(=O)c2cc(C(C)(C)C)nn2Cc2ccccc2)cc1,active: 11.6 µM
4,O=c1c2ccccc2nc2n1C(CSCc1cccc(C(F)(F)F)c1)CS2 (centres undefined),"inconclusive: 4.11 µM [cytotoxic, partial curve]"
5,Cc1ccc(C(=O)N(CCc2ccccc2)Cc2ccccc2)cc1S(=O)(=O)N1CCCCC1,"inconclusive: 29.1 µM [cytotoxic, single point]"
6,Cc1ccc(CCNC(=O)CCSCc2ccc(Cl)cc2)cc1,inactive
7,COc1ccc(/C(C)=N/NC(=O)c2nnn(-c3nonc3N)c2CN(C)c2ccccc2)cc1,inactive
8,CC(C)(C)C(=O)N1CCN(c2ccc(NC(=O)c3ccc4c(c3)OCCO4)cc2)CC1,"inconclusive: 23.1 µM [cytotoxic, single point]"
9,CC(C)N(C(=S)NCc1ccccc1)c1ccccc1,inactive
10,Cc1cccc(NC(=O)C2CCN(c3nccc(C)n3)CC2)c1,inactive
11,CCOC(=O)c1sc2nc(SCC#N)n(CCCN3CCCC3=O)c(=O)c2c1C,"inconclusive: 29.1 µM [cytotoxic, single point]"
12,O=Cc1cccc(Oc2ccc([N+](=O)[O-])cc2[N+](=O)[O-])c1,"inconclusive: 29.1 µM [cytotoxic, single point]"
13,CCOC(=O)c1c(-c2ccccc2)nnn1-c1nc(OC)nc(N2CCOCC2)n1,inactive
14,COC(=O)NC(=S)Nc1ccc(Oc2ccc(Cl)cc2Cl)c(Cl)c1,active: 14.6 µM
15,Cc1cc(N(C)C)cc(C)c1C=O,inactive
16,COc1ccccc1OCCn1c(=O)oc2ccc(C)cc21,"inconclusive: 23.1 µM [rising, partial curve]"
17,CC1=C(C(=O)O)N2C(=O)C(NC(=O)c3ccn(C)n3)C2SC1 (centres undefined),"inconclusive: 25.9 µM [cytotoxic, single point]"
18,COc1ccccc1C(=O)Nc1nc2ccccc2s1,"inconclusive: 1.46 µM [cytotoxic, full curve, poor fit]"
19,O=C(C[n+]1cc(-c2ccccc2)n2c1CCCCC2)c1ccc(Br)cc1,"inconclusive: 29.1 µM [cytotoxic, single point]"
20,O=C(Nc1sc2c(c1C(=O)c1ccccc1)CCCC2)c1cccnc1,inactive
21,COc1cc(CN(CCN(C)C)Cc2ccccc2)ccc1OCc1ccccc1,"inconclusive: 29.1 µM [cytotoxic, single point]"
22,COc1cc(Cl)cc(/C=C/c2ccc3cccc(O)c3n2)c1OC,"inconclusive: 29.1 µM [cytotoxic, single point]"
23,COc1ccccc1NS(=O)(=O)c1cccc(NC(=O)c2ccc3ccccc3n2)c1,"inconclusive: 29.1 µM [cytotoxic, single point]"

# Part of the list above, as tab-separated lines:
row	SMILES	Potency
6	Cc1ccc(CCNC(=O)CCSCc2ccc(Cl)cc2)cc1	inactive
7	COc1ccc(/C(C)=N/NC(=O)c2nnn(-c3nonc3N)c2CN(C)c2ccccc2)cc1	inactive
8	CC(C)(C)C(=O)N1CCN(c2ccc(NC(=O)c3ccc4c(c3)OCCO4)cc2)CC1	inconclusive: 23.1 µM [cytotoxic, single point]
9	CC(C)N(C(=S)NCc1ccccc1)c1ccccc1	inactive
